The text below walks through data of patent publication US20210199665A1.

By UniProt entry, the sequences of proteins in these tests, tags left out. Residues count along the entry.
UniProt O43791, residues 31-161: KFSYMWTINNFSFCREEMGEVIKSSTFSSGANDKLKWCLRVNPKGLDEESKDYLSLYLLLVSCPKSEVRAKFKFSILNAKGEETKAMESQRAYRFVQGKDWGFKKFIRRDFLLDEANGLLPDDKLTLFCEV

The experiment has as its target His-MATH (His-tagged MATH domain of human SPOP) (human) (UniProt O43791). As to the kind of experiment: peptide competition in the in vitro Pup modification assay: 1 µM PUP-IT^pep1 (competitor), 0.2 µM His-MATH, 8 µM Pup(E), free peptide 1-512 µM; anti-His immunoblot. A general note: A western blot detects proteins with antibodies after separation by electrophoresis.

These are yes or no findings as the source states them, for the method shown. Some entries that bind do so weakly or less than the wild type.

Turning to LACDEVTSTTSSSTA [Free pep1 peptide], the binding result is reported as “binds”.
